Paper PMC11264956

Columns and labels:
[1] = molecular target: T1, testes-specific protease 50 (TSP50), endogenous (human (endogenous in MCF7 and MDA-MB-231)) (UniProt Q9UI38); test: co-IP; IP with anti-TSP50 antibody on protein A/G magnetic beads from MCF7 and MDA-MB-231 cells; Western blot with anti-AKT, anti-p85α or anti-p110α
T1 sequence: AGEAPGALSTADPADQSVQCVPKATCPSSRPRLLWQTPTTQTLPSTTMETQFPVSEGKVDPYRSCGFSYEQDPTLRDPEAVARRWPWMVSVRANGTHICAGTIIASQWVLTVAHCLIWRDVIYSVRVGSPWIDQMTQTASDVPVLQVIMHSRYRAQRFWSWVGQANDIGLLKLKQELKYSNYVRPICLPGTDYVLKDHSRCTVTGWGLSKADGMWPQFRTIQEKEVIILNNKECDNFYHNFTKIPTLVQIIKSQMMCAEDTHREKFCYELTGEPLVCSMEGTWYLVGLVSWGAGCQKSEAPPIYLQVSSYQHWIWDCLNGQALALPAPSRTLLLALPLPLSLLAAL

Flag-TSP50 wild type = molecular target: T2, Flag-TSP50 wild type (UniProt Q9UI38); test: co-IP; Myc-tagged p110α domain plasmids co-transfected with Flag-TSP50 plasmid into MDA-MB-231 cells; precipitating antibody not stated for this panel
T2 sequence: T1 sequence

Substance | binding [1] | binding (Flag-TSP50 wild type)
AKT, endogenous (enzyme) | no binding | –
Myc-tagged p85 binding domain (p85BD) of p110α (domain or fragment) | – | binds

No constants are given. Whether binding was seen depends on the method and setting. Binding seen in cells or lysates may run through a third protein. For some assays here: Binding calls can cover weak binding; strength is not graded here. For some assays here: Tags and fused reporters may be left off the sequences shown.
